For two molecules, binding results are on record in doi:10.1101/2025.01.16.633295.

Sequences of proteins named here, by UniProt entry; tags and fusion partners are left off.
UniProt B5DF89: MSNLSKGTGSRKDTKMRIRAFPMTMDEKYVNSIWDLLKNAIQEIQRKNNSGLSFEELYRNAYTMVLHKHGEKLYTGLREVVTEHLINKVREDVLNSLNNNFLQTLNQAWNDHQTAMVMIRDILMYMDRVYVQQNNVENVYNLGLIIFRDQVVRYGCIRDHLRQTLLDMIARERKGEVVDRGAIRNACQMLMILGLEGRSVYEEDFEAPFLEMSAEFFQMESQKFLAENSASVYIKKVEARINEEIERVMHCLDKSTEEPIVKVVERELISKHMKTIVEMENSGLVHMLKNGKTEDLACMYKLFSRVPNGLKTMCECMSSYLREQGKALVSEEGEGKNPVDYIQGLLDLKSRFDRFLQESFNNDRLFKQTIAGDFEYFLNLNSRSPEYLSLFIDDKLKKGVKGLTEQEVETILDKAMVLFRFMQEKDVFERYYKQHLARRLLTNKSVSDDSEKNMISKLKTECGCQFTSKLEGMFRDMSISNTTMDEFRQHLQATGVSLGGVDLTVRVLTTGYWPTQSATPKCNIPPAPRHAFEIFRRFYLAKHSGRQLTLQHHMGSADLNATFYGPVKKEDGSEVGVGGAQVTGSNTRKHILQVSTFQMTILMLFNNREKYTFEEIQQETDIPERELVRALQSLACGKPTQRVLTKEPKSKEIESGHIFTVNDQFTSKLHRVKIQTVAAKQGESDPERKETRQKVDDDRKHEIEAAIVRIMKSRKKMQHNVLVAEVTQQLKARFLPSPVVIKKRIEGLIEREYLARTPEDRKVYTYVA

No constants are given. Whether binding was seen depends on the method and setting. In cells and extracts the contact can be indirect. Here binding means that the protein was enriched with, or labelled near, the bait; the list need not be complete. Tags and fused reporters may be left off the sequences shown.

This experiment deals with T1, GST-TIA1 (T-cell intracellular antigen 1) (UniProt P31483).
T1 sequence: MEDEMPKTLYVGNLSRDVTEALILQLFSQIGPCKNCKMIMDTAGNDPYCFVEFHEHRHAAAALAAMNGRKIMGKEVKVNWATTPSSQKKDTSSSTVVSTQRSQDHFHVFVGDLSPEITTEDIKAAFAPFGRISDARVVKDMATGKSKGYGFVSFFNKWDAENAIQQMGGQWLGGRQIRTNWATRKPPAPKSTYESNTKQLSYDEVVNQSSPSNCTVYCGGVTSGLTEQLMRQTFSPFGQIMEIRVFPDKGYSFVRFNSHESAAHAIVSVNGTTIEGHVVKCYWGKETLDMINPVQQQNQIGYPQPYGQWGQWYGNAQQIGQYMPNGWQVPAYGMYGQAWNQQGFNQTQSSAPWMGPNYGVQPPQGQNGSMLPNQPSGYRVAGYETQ
Nature of the experiment: affinity purification with mass spectrometry.

On to “CUL3, endogenous, rat brain (from UniProt B5DF89 1-768)”, for which the binding entry is “binds”.

B1: Annexin A7 (ANXA7), endogenous, rat (protein, UniProt Q6IRJ7 1-485)
chain: MSYPGYPPTGYPPFPGYPPAGQESSFPTSGQYPYPSGFPPMGGGAYPPAPSGGYPGAGGYPSPGGYPAPGGYPGTLNPGGPPSYPGGQGFGAPPGGAGFSGYPQPPAQSYGGGPAQVPVPGGFPGGQMPSQYPGGQSPYPGQIDTESFSSYPAFSPVSLDYSSDPAAMTQGTQGTIRPASNFDAMRDAEILRKAMKGFGTDEQAIVDVVSNRSNDQRQQIKAAFKTMYGKDLIKDLKSELSGNMEELILALFMPPTYYDAWSLRKAIQGAGTQERVLIEILCTRTNQEIRDIVRCYQLEFGRELERDIRSDTSGHFERLLVSMCQGNRDESPSINHQMAQEDAQRLYQAGEGRLGTDESCFNMILATRSFPQLRATMEAYSRMANRDLLSSVSREFSGYVESGLKTILQCALNRPAFFAERLYYSMKGAGTDDSTLVRIVVTRSEIDLVQIKQMFTQMYQKTLSTMIASDTSGDYRKLLLAIVGQ
Turning to B1, the binding entry is “binds”.
